This passage reports binding results from PMC4521966.

B1: OGDHL (protein, UniProt Q9ULD0 74-1010)
chain: FREASEEAFSGSAQPRPPSVVHESRSAVSSRTKTSKLVEDHLAVQSLIRAYQIRGHHVAQLDPLGILDADLDSFVPSDLITTIDKLAFYDLQEADLDKEFQLPTTTFIGGSENTLSLREIIRRLENTYCQHIGLEFMFINDVEQCQWIRQKFETPGVMQFSSEEKRTLLARLVRSMRFEDFLARKWSSEKRFGLEGCEVMIPALKTIIDKSSEMGIENVILGMPHRGRLNVLANVIRKDLEQIFCQFDPKLEAADEGSGDVKYHLGMYHERINRVTNRNITLSLVANPSHLEAVDPVVQGKTKAEQFYRGDAQGKKVMSILVHGDAAFAGQGVVYETFHLSDLPSYTTNGTVHVVVNNQIGFTTDPRMARSSPYPTDVARVVNAPIFHVNADDPEAVIYVCSVAAEWRNTFNKDVVVDLVCYRRRGHNEMDEPMFTQPLMYKQIHRQVPVLKKYADKLIAEGTVTLQEFEEEIAKYDRICEEAYGRSKDKKILHIKHWLDSPWPGFFNVDGEPKSMTCPATGIPEDMLTHIGSVASSVPLEDFKIHTGLSRILRGRADMTKNRTVDWALAEYMAFGSLLKEGIHVRLSGQDVERGTFSHRHHVLHDQEVDRRTCVPMNHLWPDQAPYTVCNSSLSEYGVLGFELGYAMASPNALVLWEAQFGDFHNTAQCIIDQFISTGQAKWVRHNGIVLLLPHGMEGMGPEHSSARPERFLQMSNDDSDAYPAFTKDFEVSQLYDCNWIVVNCSTPANYFHVLRRQILLPFRKPLIIFTPKSLLRHPEAKSSFDQMVSGTSFQRVIPEDGAAARAPEQVQRLIFCTGKVYYDLVKERSSQDLEEKVAITRLEQISPFPFDLIKQEAEKYPGAELAWCQEEHKNMGYYDYISPRFMTILRRARPIWYVGRDPAAAPATGNRNTHLVSLKKFLDTAFNLQAFEGKTF
B2: DLAT (protein, UniProt P10515 87-647)
chain: SLPPHQKVPLPSLSPTMQAGTIARWEKKEGDKINEGDLIAEVETDKATVGFESLEECYMAKILVAEGTRDVPIGAIICITVGKPEDIEAFKNYTLDSSAAPTPQAAPAPTPAATASPPTPSAQAPGSSYPPHMQVLLPALSPTMTMGTVQRWEKKVGEKLSEGDLLAEIETDKATIGFEVQEEGYLAKILVPEGTRDVPLGTPLCIIVEKEADISAFADYRPTEVTDLKPQVPPPTPPPVAAVPPTPQPLAPTPSAPCPATPAGPKGRVFVSPLAKKLAVEKGIDLTQVKGTGPDGRITKKDIDSFVPSKVAPAPAAVVPPTGPGMAPVPTGVFTDIPISNIRRVIAQRLMQSKQTIPHYYLSIDVNMGEVLLVRKELNKILEGRSKISVNDFIIKASALACLKVPEANSSWMDTVIRQNHVVDVSVAVSTPAGLITPIVFNAHIKGVETIANDVVSLATKAREGKLQPHEFQGGTFTISNLGMFGIKNFSAIINPPQACILAIGASEDKLVPADNEKGFDVASMMSVTLSCDHRVVDGAVGAQWLAEFRKYLEKPITMLL
B3: MARS (protein, UniProt P56192 1-900)
chain: MRLFVSDGVPGCLPVLAAAGRARGRAEVLISTVGPEDCVVPFLTRPKVPVLQLDSGNYLFSTSAICRYFFLLSGWEQDDLTNQWLEWEATELQPALSAALYYLVVQGKKGEDVLGSVRRALTHIDHSLSRQNCPFLAGETESLADIVLWGALYPLLQDPAYLPEELSALHSWFQTLSTQEPCQRAAETVLKQQGVLALRPYLQKQPQPSPAEGRAVTNEPEEEELATLSEEEIAMAVTAWEKGLESLPPLRPQQNPVLPVAGERNVLITSALPYVNNVPHLGNIIGCVLSADVFARYSRLRQWNTLYLCGTDEYGTATETKALEEGLTPQEICDKYHIIHADIYRWFNISFDIFGRTTTPQQTKITQDIFQQLLKRGFVLQDTVEQLRCEHCARFLADRFVEGVCPFCGYEEARGDQCDKCGKLINAVELKKPQCKVCRSCPVVQSSQHLFLDLPKLEKRLEEWLGRTLPGSDWTPNAQFITRSWLRDGLKPRCITRDLKWGTPVPLEGFEDKVFYVWFDATIGYLSITANYTDQWERWWKNPEQVDLYQFMAKDNVPFHSLVFPCSALGAEDNYTLVSHLIATEYLNYEDGKFSKSRGVGVFGDMAQDTGIPADIWRFYLLYIRPEGQDSAFSWTDLLLKNNSELLNNLGNFINRAGMFVSKFFGGYVPEMVLTPDDQRLLAHVTLELQHYHQLLEKVRIRDALRSILTISRHGNQYIQVNEPWKRIKGSEADRQRAGTVTGLAVNIAALLSVMLQPYMPTVSATIQAQLQLPPPACSILLTNFLCTLPAGHQIGTVSPLFQKLENDQIESLRQRFGGGQAKTSPKPAVVETVTTAKPQQIQALMDEVTKQGNIVRELKAQKADKNEVAAEVAKLLDLKKQLAVAEGKPPEAPKGKKKK
B4: VARS (protein, UniProt P26640 1-1264)
chain: MSTLYVSPHPDAFPSLRALIAARYGEAGEGPGWGGAHPRICLQPPPTSRTPFPPPRLPALEQGPGGLWVWGATAVAQLLWPAGLGGPGGSRAAVLVQQWVSYADTELIPAACGATLPALGLRSSAQDPQAVLGALGRALSPLEEWLRLHTYLAGEAPTLADLAAVTALLLPFRYVLDPPARRIWNNVTRWFVTCVRQPEFRAVLGEVVLYSGARPLSHQPGPEAPALPKTAAQLKKEAKKREKLEKFQQKQKIQQQQPPPGEKKPKPEKREKRDPGVITYDLPTPPGEKKDVSGPMPDSYSPRYVEAAWYPWWEQQGFFKPEYGRPNVSAANPRGVFMMCIPPPNVTGSLHLGHALTNAIQDSLTRWHRMRGETTLWNPGCDHAGIATQVVVEKKLWREQGLSRHQLGREAFLQEVWKWKEEKGDRIYHQLKKLGSSLDWDRACFTMDPKLSAAVTEAFVRLHEEGIIYRSTRLVNWSCTLNSAISDIEVDKKELTGRTLLSVPGYKEKVEFGVLVSFAYKVQGSDSDEEVVVATTRIETMLGDVAVAVHPKDTRYQHLKGKNVIHPFLSRSLPIVFDEFVDMDFGTGAVKITPAHDQNDYEVGQRHGLEAISIMDSRGALINVPPPFLGLPRFEARKAVLVALKERGLFRGIEDNPMVVPLCNRSKDVVEPLLRPQWYVRCGEMAQAASAAVTRGDLRILPEAHQRTWHAWMDNIREWCISRQLWWGHRIPAYFVTVSDPAVPPGEDPDGRYWVSGRNEAEAREKAAKEFGVSPDKISLQQDEDVLDTWFSSGLFPLSILGWPNQSEDLSVFYPGTLLETGHDILFFWVARMVMLGLKLTGRLPFREVYLHAIVRDAHGRKMSKSLGNVIDPLDVIYGISLQGLHNQLLNSNLDPSEVEKAKEGQKADFPAGIPECGTDALRFGLCAYMSQGRDINLDVNRILGYRHFCNKLWNATKFALRGLGKGFVPSPTSQPGGHESLVDRWIRSRLTEAVRLSNQGFQAYDFPAVTTAQYSFWLYELCDVYLECLKPVLNGVDQVAAECARQTLYTCLDVGLRLLSPFMPFVTEELFQRLPRRMPQAPPSLCVTPYPEPSECSWKDPEAEAALELALSITRAVRSLRADYNLTRIRPDCFLEVADEATGALASAVSGYVQALASAGVVAVLALGAPAPQGCAVALASDRCSIHLQLQGLVDPARELGKLQAKRVEAQRQAQRLRERRAASGYPVKVPLEVQEADEAKLQQTEAELRKVDEAIALFQKML
B5: RARS (protein, UniProt P54136 1-660)
chain: MDVLVSECSARLLQQEEEIKSLTAEIDRLKNCGCLGASPNLEQLQEENLKLKYRLNILRKSLQAERNKPTKNMINIISRLQEVFGHAIKAAYPDLENPPLLVTPSQQAKFGDYQCNSAMGISQMLKTKEQKVNPREIAENITKHLPDNECIEKVEIAGPGFINVHLRKDFVSEQLTSLLVNGVQLPALGENKKVIVDFSSPNIAKEMHVGHLRSTIIGESISRLFEFAGYDVLRLNHVGDWGTQFGMLIAHLQDKFPDYLTVSPPIGDLQVFYKESKKRFDTEEEFKKRAYQCVVLLQGKNPDITKAWKLICDVSRQELNKIYDALDVSLIERGESFYQDRMNDIVKEFEDRGFVQVDDGRKIVFVPGCSIPLTIVKSDGGYTYDTSDLAAIKQRLFEEKADMIIYVVDNGQSVHFQTIFAAAQMIGWYDPKVTRVFHAGFGVVLGEDKKKFKTRSGETVRLMDLLGEGLKRSMDKLKEKERDKVLTAEELNAAQTSVAYGCIKYADLSHNRLNDYIFSFDKMLDDRGNTAAYLLYAFTRIRSIARLANIDEEMLQKAARETKILLDHEKEWKLGRCILRFPEILQKILDDLFLHTLCDYIYELATAFTEFYDSCYCVEKDRQTGKILKVNMWRMLLCEAVAAVMAKGFDILGIKPVQRM

No constants are given. Whether binding was seen depends on the method and setting. In cells and extracts the contact can be indirect. These calls come from enrichment with a bait or labelling near it, and not all partners need be listed. Tags and fused reporters may be left off the sequences shown.

The target of this assay is T1, C-terminal FLAG-tagged mouse WDR72 (WD repeat-containing protein 72) (mouse) (UniProt D3YYM4).
T1 sequence: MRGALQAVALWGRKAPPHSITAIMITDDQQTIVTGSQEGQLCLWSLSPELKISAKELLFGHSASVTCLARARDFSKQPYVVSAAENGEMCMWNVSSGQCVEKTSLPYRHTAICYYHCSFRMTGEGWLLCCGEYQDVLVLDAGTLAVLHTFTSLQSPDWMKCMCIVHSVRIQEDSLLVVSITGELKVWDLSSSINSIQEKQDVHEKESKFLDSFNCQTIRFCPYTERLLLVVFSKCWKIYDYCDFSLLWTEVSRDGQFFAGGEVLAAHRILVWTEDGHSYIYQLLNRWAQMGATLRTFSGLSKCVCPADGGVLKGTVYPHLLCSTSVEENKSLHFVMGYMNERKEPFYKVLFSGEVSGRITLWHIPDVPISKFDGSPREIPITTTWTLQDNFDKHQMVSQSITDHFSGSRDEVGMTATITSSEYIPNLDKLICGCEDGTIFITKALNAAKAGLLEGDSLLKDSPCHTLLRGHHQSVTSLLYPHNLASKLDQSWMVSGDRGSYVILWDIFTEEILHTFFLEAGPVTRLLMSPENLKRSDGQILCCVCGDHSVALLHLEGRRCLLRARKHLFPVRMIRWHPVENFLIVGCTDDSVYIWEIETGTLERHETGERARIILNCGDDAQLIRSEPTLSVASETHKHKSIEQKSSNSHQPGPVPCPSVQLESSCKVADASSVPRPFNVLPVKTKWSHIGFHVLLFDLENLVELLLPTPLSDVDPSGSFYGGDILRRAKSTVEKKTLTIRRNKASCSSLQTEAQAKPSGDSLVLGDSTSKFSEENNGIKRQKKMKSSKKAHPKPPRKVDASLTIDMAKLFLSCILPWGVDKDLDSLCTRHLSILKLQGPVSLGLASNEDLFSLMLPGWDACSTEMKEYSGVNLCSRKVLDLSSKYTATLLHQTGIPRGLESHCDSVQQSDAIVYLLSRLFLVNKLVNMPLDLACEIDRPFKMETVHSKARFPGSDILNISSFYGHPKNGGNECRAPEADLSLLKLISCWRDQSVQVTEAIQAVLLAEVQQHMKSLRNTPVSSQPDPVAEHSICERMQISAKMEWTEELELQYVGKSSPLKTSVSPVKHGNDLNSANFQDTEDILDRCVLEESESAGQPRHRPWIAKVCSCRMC
As to the kind of experiment: affinity purification with mass spectrometry; C-terminal FLAG-tagged mouse WDR72 overexpressed in HEK293; NP40 lysate; anti-FLAG antibody on protein A Dynabeads, 30 min at room temperature, washed twice; six CBB-stained bands cut from the SDS-PAGE gel, trypsin, LC-MS/MS.
For B1, the binding entry is recorded as “binds”. B2: the binding entry is recorded as “binds”.

Consider B3, for which the binding entry is “binds”. As to B4, the binding entry is “binds”. Under B5 stands “binds”.
